Measured values from patent US7754705B2, “Cationic steroid antimicrobial compositions and methods of use” (priority 2006, dated 2010).
At least one structure is not confirmed: it was looked up by name or label, or the drawing left a doubt.

Test system: vaccinia virus

Structure (SMILES)	concentration at which significant viral killing was observed / compound was effective
CC(CCCO)C1CCC2C3C(OCCCN)CC4CC(OCCCN)CCC4(C)C3CC(OCCCN)C12C (stereo not drawn) [CSA-8]	1 or 5 micromolar
CCCCCCCCNCCC[C@@H](C)[C@H]1CC[C@H]2[C@@H]3[C@H](OCCCN)C[C@@H]4C[C@H](OCCCN)CC[C@]4(C)[C@H]3C[C@H](OCCCN)[C@]12C [CSA-13]	1 or 5 micromolar
CCCOCCCC(C)C1CCC2C3C(OCCCN)CC4CC(OCCCN)CCC4(C)C3CC(OCCCN)C12C (stereo not drawn) [CSA-17]	1 or 5 micromolar
CCCCCN(CCCCC)CCCC(C)C1CCC2C3C(OCCCN)CC4CC(OCCCN)CCC4(C)C3CC(OCCCN)C12C.Cl.Cl.Cl.Cl (stereo not drawn) [CSA-90]	1 or 5 micromolar
CCCCCCCCN(CCCCCCCC)CCCC(C)C1CCC2C3C(OCCCN)CC4CC(OCCCN)CCC4(C)C3CC(OCCCN)C12C.Cl.Cl.Cl.Cl (stereo not drawn) [CSA-91]	1 or 5 micromolar
CCCCCCCCCCCCCCCCNCCCC(C)C1CCC2C3C(OCCCN)CC4CC(OCCCN)CCC4(C)C3CC(OCCCN)C12C.Cl.Cl.Cl.Cl (stereo not drawn) [CSA-92]	1 or 5 micromolar
